Experimental data: paper PMC9788671

Chains of the proteins cited; added tags and fusions are not shown.
UniProt Q9NZV8: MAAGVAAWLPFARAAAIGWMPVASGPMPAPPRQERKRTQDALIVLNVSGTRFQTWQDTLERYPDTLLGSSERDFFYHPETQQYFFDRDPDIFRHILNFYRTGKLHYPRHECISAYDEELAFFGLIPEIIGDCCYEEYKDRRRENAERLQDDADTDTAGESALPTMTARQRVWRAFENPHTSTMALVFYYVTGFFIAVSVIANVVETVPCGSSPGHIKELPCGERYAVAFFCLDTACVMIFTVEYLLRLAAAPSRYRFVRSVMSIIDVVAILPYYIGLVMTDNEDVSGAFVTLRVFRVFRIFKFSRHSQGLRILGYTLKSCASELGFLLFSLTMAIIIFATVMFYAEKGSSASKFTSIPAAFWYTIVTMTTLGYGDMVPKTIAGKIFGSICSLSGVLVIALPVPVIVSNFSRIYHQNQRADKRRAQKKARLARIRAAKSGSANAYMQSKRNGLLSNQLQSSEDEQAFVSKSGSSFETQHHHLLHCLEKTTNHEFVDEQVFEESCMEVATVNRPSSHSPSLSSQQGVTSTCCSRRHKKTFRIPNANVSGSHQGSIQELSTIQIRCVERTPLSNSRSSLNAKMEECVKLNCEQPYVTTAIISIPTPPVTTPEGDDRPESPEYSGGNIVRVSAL

B1: Gdap1 (protein, UniProt D4A5X7 1-422)
chain: MTSQGPLPTRQHSFLGVKLHLPEASSSAKHVLYATGGPAKPKDGSKPLQQAGQPTRLAESLHPAMARKQDEARSGVPLRAQGPPAAEVRLILYHWTHSFSSQKVRLVIAEKALKCEEHDVSLPLSEHNEPWFMRLNSTGEVPVLIHGENIICEATQIIDYLEQTFLDERTPRLMPDEGSMYYPRVQHYRELLDSLPMDAYTHGCILHPELTVDSMIPAYATTRIRGQIGNTESELKKLAEENPDLQEAYIAKQKRLKSKLLDHDNVKYLKKILDELEKVLDQVETELQRRNEETPDEGNQPWLCGESFTLADVSLAVTLHRLKFLGFARRNWGHGKRPNLESYYERVLKRKTFNKVLGHVNNILISAVLPTAFRVAKKRAPKVLGSTLVVGLLVGMGYFAFMLFRRRLGNMILSLRPRPNYF
B2: Tkt (protein, UniProt P50137 1-623)
chain: MEGYHKPDQQKLQALKDTANRLRISSIQATTAAGSGHPTSCCSAAEIMAVLFFHTMRYKALDPRNPHNDRFVLSKGHAAPILYAVWAEAGFLPEAELLNLRKISSDLDGHPVPKQAFTDVATGSLGQGLGAACGMAYTGKYFDKASYRVYCMLGDGEVSEGSVWEAMAFAGIYKLDNLVAIFDINRLGQSDPAPLQHQVDVYQKRCEAFGWHAIIVDGHSVEELCKAFGQAKHQPTAIIAKTFKGRGITGIEDKEAWHGKPLPKNMAEQIIQEIYSQVQSKKKILATPPQEDAPSVDIANIRMPTPPNYKVGDKIATRKAYGLALAKLGHASDRIIALDGDTKNSTFSELFKKEHPDRFIECYIAEQNMVSIAVGCATRDRTVPFCSTFAAFFTRAFDQIRMAAISESNINLCGSHCGVSIGEDGPSQMALEDLAMFRSVPMSTVFYPSDGVATEKAVELAANTKGICFIRTSRPENAIIYSNNEDFQVGQAKVVLKSKDDQVTVIGAGVTLHEALAAAEMLKKEKIGVRVLDPFTIKPLDKKLILDCARATKGRILTVEDHYYEGGIGEAVSAVVVGEPGVTVTRLAVSQVPRSGKPAELLKMFGIDKDAIVQAVKGLVTKG
B3: Psmc2 (protein, UniProt Q63347 1-433)
chain: MPDYLGADQRKTKEDEKDDKPIRALDEGDIALLKTYGQSTYSRQIKQVEDDIQQLLKKINELTGIKESDTGLAPPALWDLAADKQTLQSEQPLQVARCTKIINADSEDPKYIINVKQFAKFVVDLSDQVAPTDIEEGMRVGVDRNKYQIHIPLPPKIDPTVTMMQVEEKPDVTYSDVGGCKEQIEKLREVVETPLLHPERFVNLGIEPPKGVLLFGPPGTGKTLCARAVANRTDACFIPVIGSELVQKYVGEGARMVRELFEMARTKKACLIFFDEIDAIGGARFDDGAGGDNEVQRTMLELINQLDGFDPRGNIKVLMATNRPDTLDPALMRPGRLDRKIEFSLPDLEGRTHIFKIHARSMSVERDIRFELLARLCPNSTGAEIRSVCTEAGMFAIRARRKIATEKDFLEAVNKVIKSYAKFSATPRYMTYN
B4: Vat1 (protein, UniProt Q3MIE4 1-404)
chain: MSAEREATEAATVAAAAEARAETGAGEGAPSQPPTVEVASDPQPPPAPEASASASAPPLRCLVLTGFGGYDKVKLQSRPAVPPAPGPGQVTLRVRACGLNFADLMGRQGLYDRLPPLPVTPGMEGAGVVVAVGEGVSDRKAGDRVMVLNRSGMWQEEVTVPSAQTFLMPEAMTFEEAAALLVNYITAYMVLFDFGNLRPGHSVLVHMAAGGVGMAALQLCRTVENVTVFGTASASKHEVLKENGVTHPIDYHTTDYVDEIKKISPKGVDIVMDPLGGSDTAKGYHLLKPMGKVVTYGMANLLTGPKRNLMAMARTWWNQFSVTALQLLQANRAVCGFHLGYLDGEVELVSRVVTHLLALYNQGHIKPRIDSVWPFEKVADAMRQMQEKKNIGKVLLVPGPEKET
B5: Gpd1l (protein, UniProt D3ZAP9 1-351)
chain: MAAAPLKVCIVGSGNWGSAVAKIIGSNVKNLQKFSSTVKMWVFEETVNGRKLTDIINNDHENVKYLPGHKLPENVVAVPNLGEAVQDADLLVFVIPHQFIHKICDEITGRVPKKAVGITLIKGIDEGPDGLKLISDIIREKMGIDISVLMGANIASEVAAEKFCETTIGSKVLQNGLLFKELLQTPNFRITVVDDADTVELCGALKNIVAVGAGFCDGLCCGDNTKAAVIRLGLMEMIAFAKIFCKGQVSTATFLESCGVADLITTCYGGRNRKVAEAFARTGKTIEELEKELLNGQKLQGPQTSAEVYRILKQKGLLDKFPLFTAVYQICYEGRPVTQMLSCLQSHPEHI

Biological target: TAP-Kv4.2 (human) (UniProt Q9NZV8)
Assay: affinity purification with mass spectrometry; TAP-Kv4.2 expressed by lentivirus in rat hippocampal neurons, harvested at DIV14; weak lysis buffer of the kit (0.1% NP-40); streptavidin resin, then calmodulin resin; gel cut into high and low molecular weight fragments; no MS of the control sample

Row | Binder | binding
1 | B1 | binds
2 | B2 | binds
3 | B3 | binds
4 | B4 | binds
5 | B5 | binds

These are yes or no findings as the source states them, for the method shown. Binding seen in cells or lysates may run through a third protein. A yes stands for co-enrichment or nearness to the bait. Other partners may have been found.
